No constants are given. Whether binding was seen depends on the method and setting. Binding seen in cells or lysates may run through a third protein. These calls come from enrichment with a bait or labelling near it, and not all partners need be listed.

The chains behind the UniProt entries cited, without tags or fusion partners.
UniProt Q8WUY9: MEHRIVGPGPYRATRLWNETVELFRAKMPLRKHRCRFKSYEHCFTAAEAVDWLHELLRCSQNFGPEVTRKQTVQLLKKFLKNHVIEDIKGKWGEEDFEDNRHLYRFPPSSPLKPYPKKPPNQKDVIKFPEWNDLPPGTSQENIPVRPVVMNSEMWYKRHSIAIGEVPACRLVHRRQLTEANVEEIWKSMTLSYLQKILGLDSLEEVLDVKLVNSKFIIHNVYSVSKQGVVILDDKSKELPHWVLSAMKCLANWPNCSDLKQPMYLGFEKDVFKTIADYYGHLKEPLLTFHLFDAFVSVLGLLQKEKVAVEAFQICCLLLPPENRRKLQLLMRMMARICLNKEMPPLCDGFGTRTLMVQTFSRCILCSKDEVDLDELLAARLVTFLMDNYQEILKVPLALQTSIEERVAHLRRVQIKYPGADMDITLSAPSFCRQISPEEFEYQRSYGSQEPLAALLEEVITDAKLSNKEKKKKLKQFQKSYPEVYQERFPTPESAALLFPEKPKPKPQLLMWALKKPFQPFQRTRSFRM
UniProt P45974: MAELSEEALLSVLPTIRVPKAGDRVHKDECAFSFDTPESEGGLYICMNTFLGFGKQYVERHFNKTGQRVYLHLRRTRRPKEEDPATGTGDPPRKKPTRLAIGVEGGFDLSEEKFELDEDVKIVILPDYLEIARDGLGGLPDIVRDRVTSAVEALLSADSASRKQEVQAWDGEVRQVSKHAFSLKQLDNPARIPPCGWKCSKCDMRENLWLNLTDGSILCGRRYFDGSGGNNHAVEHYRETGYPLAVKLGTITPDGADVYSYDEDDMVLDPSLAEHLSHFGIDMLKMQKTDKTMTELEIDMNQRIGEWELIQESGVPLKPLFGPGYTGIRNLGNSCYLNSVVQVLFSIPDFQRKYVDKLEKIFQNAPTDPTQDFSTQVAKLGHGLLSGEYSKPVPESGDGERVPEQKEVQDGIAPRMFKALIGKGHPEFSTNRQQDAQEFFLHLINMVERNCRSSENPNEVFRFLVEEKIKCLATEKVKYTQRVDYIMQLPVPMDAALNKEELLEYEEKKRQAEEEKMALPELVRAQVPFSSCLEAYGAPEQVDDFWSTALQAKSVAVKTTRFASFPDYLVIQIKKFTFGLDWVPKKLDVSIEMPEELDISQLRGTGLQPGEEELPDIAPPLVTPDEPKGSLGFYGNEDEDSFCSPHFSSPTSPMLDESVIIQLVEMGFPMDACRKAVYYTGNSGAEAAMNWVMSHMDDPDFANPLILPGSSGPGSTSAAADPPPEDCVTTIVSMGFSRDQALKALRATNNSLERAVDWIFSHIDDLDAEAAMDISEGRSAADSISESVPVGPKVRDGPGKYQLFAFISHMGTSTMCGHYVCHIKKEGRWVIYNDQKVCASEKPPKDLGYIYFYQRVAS
UniProt P35222: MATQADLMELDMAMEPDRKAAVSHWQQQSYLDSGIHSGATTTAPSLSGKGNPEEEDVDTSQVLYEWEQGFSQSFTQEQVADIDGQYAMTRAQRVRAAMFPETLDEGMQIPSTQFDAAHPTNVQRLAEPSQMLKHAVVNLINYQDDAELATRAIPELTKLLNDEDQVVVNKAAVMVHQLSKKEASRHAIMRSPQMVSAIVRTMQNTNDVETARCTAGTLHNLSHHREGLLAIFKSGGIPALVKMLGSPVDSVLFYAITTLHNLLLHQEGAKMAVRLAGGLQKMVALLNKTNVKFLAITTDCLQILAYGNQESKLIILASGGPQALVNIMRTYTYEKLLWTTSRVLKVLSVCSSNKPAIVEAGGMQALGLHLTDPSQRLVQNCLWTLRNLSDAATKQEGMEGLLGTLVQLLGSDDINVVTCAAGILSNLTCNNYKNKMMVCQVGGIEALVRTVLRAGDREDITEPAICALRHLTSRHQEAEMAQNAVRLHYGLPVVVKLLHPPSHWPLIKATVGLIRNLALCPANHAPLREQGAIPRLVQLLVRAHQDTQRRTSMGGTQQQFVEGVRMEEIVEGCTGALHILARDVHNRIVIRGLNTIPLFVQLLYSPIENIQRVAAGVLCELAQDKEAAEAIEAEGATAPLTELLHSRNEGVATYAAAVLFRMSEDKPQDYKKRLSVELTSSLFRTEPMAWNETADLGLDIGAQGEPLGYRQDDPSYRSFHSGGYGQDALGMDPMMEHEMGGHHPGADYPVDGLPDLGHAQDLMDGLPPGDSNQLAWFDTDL

For the test, the target named is FLAG-DEPDC1B (DEP domain-containing protein 1B), expressed in HEK-293T cells (human) (UniProt Q8WUY9). The test is described as follows: affinity purification with mass spectrometry; Vector or FLAG-DEPDC1B plasmid transfected into HEK-293T cells; extracted proteins analysed by mass spectrometry (Shanghai Bioprofile); how the bait was isolated is not told.

As for “ubiquitin-specific protease 5 (USP5), endogenous in HEK-293T cells (from UniProt P45974 1-858) (enzyme)”, the binding result was “binds”.
Regarding “β-catenin, endogenous in HEK-293T cells (from UniProt P35222 1-781)”, the binding result is listed as “binds”.

These data come from publication PMC10635659.
